The target of the assay is T1, SLIT2 (UniProt O94813).
T1 sequence: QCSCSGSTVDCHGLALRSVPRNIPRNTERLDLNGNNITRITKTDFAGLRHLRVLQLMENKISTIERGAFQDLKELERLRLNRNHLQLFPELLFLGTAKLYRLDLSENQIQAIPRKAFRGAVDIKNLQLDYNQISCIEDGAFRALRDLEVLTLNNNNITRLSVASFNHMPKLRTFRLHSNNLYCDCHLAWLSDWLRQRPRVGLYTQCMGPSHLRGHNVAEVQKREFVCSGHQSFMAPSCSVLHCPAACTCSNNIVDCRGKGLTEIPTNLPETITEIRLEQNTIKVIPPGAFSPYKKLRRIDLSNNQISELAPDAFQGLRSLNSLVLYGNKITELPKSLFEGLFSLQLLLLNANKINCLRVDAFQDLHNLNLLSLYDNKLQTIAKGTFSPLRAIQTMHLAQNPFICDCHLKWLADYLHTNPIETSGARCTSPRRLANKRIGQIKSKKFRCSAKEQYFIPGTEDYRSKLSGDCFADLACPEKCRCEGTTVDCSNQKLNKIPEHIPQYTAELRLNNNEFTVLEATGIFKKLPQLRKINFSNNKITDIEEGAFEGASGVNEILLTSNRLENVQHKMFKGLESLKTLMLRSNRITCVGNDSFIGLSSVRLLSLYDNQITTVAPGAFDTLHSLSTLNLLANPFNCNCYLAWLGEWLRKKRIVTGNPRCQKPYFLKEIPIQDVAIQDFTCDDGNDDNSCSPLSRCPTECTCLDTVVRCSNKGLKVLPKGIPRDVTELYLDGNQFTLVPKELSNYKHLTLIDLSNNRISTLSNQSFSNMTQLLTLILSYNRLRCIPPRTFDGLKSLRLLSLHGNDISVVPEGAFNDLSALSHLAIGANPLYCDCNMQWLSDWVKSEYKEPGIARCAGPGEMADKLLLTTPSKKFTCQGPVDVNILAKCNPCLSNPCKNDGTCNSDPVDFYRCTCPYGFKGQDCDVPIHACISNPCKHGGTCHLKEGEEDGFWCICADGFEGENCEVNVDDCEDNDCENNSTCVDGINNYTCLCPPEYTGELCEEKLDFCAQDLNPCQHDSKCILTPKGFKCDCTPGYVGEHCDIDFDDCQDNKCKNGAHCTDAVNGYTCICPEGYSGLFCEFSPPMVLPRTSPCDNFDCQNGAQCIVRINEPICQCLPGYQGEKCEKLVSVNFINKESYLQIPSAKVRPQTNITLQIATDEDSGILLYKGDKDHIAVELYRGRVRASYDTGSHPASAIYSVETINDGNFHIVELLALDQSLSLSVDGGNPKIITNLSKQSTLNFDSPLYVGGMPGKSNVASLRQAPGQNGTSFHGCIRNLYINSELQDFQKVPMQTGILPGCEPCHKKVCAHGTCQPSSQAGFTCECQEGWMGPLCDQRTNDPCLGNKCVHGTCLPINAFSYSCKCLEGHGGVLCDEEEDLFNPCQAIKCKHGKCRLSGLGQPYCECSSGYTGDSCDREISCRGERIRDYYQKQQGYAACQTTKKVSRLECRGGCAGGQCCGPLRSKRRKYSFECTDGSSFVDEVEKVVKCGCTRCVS
The experiment in a line: co-IP; immunoprecipitation with anti-SLIT2 antibody or control IgG from cells overexpressing ROBO1^WT or ROBO1^E280*; ROBO1 detected in the immunoprecipitates.

By UniProt entry, the sequences of proteins in these tests, tags left out. Where a name states a change or a piece, a line headed by the entry shows the natural chain unless it says otherwise.
UniProt Q9Y6N7: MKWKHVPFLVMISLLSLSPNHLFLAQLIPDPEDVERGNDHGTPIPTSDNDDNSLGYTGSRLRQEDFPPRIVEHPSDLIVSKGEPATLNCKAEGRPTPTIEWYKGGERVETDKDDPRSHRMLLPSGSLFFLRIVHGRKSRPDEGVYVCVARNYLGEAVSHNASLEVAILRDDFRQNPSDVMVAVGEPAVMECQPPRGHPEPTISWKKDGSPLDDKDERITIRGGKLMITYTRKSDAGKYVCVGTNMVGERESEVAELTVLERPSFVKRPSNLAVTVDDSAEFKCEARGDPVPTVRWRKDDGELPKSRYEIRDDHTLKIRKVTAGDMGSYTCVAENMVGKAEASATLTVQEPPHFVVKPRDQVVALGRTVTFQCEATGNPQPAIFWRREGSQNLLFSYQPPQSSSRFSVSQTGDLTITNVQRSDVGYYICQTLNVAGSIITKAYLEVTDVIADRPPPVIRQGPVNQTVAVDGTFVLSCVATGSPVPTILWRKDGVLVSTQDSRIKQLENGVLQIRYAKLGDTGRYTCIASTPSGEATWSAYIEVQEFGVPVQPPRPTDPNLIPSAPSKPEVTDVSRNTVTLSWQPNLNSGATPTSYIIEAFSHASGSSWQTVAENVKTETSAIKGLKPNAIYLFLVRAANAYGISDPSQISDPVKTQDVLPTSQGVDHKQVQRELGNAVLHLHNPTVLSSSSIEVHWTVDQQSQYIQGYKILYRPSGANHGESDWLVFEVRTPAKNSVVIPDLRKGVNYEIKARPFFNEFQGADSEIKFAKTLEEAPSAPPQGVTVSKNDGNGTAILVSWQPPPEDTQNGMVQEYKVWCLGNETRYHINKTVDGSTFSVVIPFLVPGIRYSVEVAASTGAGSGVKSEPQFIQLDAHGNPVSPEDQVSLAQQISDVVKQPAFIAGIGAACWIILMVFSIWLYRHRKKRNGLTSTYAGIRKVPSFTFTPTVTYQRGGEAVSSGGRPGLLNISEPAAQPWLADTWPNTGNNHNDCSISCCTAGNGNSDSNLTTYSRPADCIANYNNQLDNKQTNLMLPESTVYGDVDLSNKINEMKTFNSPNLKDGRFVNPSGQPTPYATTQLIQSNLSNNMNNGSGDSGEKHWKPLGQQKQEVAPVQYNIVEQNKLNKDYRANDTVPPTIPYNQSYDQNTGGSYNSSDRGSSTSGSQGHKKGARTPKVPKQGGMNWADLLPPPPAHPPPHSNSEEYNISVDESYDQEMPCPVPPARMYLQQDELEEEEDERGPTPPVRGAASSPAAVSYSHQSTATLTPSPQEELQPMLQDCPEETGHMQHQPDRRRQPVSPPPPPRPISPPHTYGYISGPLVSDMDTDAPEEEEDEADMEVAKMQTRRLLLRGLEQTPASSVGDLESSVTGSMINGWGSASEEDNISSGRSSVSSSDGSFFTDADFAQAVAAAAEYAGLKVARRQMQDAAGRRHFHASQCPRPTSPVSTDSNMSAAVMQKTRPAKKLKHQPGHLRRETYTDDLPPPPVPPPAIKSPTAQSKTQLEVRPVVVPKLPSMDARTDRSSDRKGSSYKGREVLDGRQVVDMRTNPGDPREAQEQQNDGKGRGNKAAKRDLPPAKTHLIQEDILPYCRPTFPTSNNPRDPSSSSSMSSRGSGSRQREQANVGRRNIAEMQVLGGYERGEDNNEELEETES

This is an account of results in PMC9124974.

No constants are given. Whether binding was seen depends on the method and setting. Binding seen in cells or lysates may run through a third protein. Some entries that bind do so weakly or less than the wild type.

For “ROBO1 p.E280* (c.838G>T) truncated protein (from UniProt Q9Y6N7 26-279) (domain or fragment)”, the binding result is reported as “no binding”.

For the substance “ROBO1 wild type (from UniProt Q9Y6N7 26-1651) (receptor)”, the binding result is “binds”.
